Where a name gives a salt, the structure may show the parent alone. This is one part of the list. Many values rest on one well or one pass, so single values are uncertain.
Experiments:
A2780 = experiment: cell growth inhibition ratio vs untreated control (CCK8); higher = stronger inhibition of cell viability; details: 10 µM; 48 h
Description: (§1)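 Natural product library (Topscience) screened at 10 µM final concentration for 48 h on ovarian cancer A2780 cells and patient-derived ovarian cancer cells (PDC) in 96-well plates; viability read by CCK8 and reported as inhibition ratio (%) relative to untreated control. Single-dose primary screen.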

[1] = tested on: patient-derived ovarian cancer cells (PDC); experiment: as above; details: 10 µM; 48 h
Description: as §1

Structure (SMILES) | cell growth inhibition ratio (A2780) [%] | cell growth inhibition ratio [1] [%]
O[C@@H]1[C@@H](O)[C@@H](OC/C=C/c2ccccc2)O[C@H](CO[C@@H]2OC[C@H](O)[C@H](O)[C@H]2O)[C@H]1O | -1.22 | 0.707
COc1ccc(-c2coc3cc(OC)ccc3c2=O)cc1 [4',7-Dimethoxyisoflavone] | 13 | 17.9
COc1ccc2cc3[n+](cc2c1OC)CCc1cc2c(cc1-3)OCO2 [Berberine hydrochloride] | 34.2 | -4.17
CC1(C)[C@@H](O[C@H]2O[C@H](C(=O)O)[C@@H](O)[C@H](O)[C@H]2O[C@@H]2O[C@H](C(=O)O)[C@@H](O)[C@H](O)[C@H]2O)CC[C@]2(C)[C@H]3C(=O)C=C4[C@@H]5C[C@@](C)(C(=O)O)CC[C@]5(C)CC[C@@]4(C)[C@]3(C)CC[C@@H]12 [Glycyrrhizin (Glycyrrhizic Acid)] | 0.558 | 4.31
COc1cc(/C=C/c2ccc(O)cc2)cc(OC)c1 [Pterostilbene] | 0.494 | 5.13
COc1cc(C=O)ccc1OC(C)=O [Acetylvanillin] | -3.41 | 5.85
CC(C)=CCc1cc2c(cc1O)O[C@H](c1ccc(O)cc1)CC2=O [Bavachin] | 2.65 | 14.3
COc1ccc2c3c1O[C@H]1C[C@@H](O)C=C[C@@]31CCN(C)C2 [Galanthamine HBr] | 19.9 | -4.81
CC1(C)CC[C@]2(C(=O)O)CC[C@]3(C)C(=CC[C@@H]4[C@@]5(C)C[C@@H](O)[C@H](O)C(C)(C)[C@@H]5CC[C@]43C)[C@@H]2C1 [Maslinic acid] | 24 | 4.45
